Measured values from publication PMC6447619, “New type of interaction between the SARAH domain of the tumour suppressor RASSF1A and its mitotic kinase Aurora A” (Scientific Reports, 2019).
Results are given in words; binding and its absence hold for the method and conditions named.

Target: RASSF1A RBD (residues 121–290) (UniProt Q9NS23)
Assay: SEC; analytical gel filtration on Superose 6 10/300 GL, 100 μl of dilution series injected (RBD 1.5-17.5 μM, ∆N 4.5-35 μM, SARAH 1.5-80 μM), 25 mM HEPES pH 7.4, 300 mM NaCl; MBP-tagged constructs; dimer to monomers; both purified

B1: RASSF1A RBD (residues 121–290) (domain or fragment, UniProt Q9NS23-2 121-290)
chain: EPVEWETPDLSQAEIEQKIKEYNAQINSNLFMSLNKDGSYTGFIKVQLKLVRPVSVPSSKKPPSLQDARRGPGRGTSVRRRTSFYLPKDAVKHLHVLSRTRAREVIEALLRKFLVVDDPRKFALFERAERHGQVYLRKLLDDEQPLRLRLLAGPSDKALSFVLKENDSGE
  binding: no binding (tested: 1.5-17.5 μM initial concentration)
